From article PMC7663799, “Endocytosis and Trafficking of Heparan Sulfate Proteoglycans in Triple-Negative Breast Cancer Cells Unraveled with a Polycationic Peptide” (International Journal of Molecular Sciences, 2020)

Tested on: Rab5
Assay: Colocalization of NT4 with Rab5 (Rab5A antibody)
Format: cell-based, human
Conditions: MDA-MB-231

## (pyELYENKPRRPYIL)4K2K-beta-Ala [NT4]
N = 11, SD ± 0.06
  Pearson coefficient of NT4 with Rab5: 0.51
N = 11, SD ± 13
  colocalization rate of NT4 with Rab5: 39%
